Data reported in PubChem BioAssay AID651804 (National Center for Advancing Translational Sciences (NCATS), 2012).
Among all 1,200 compounds or so, about 20 (2%) were called active. Not shown: some 23% with an inconclusive outcome. Calls follow the shape of the dose curve; as a rule, active = well fitted inhibition curve with a large enough effect; inconclusive = small, poorly fitted or top-dose-only effect; inactive = no such curve, though single readings can be large or run the other way. The list shows a part of the results.

Amino acid sequences for entries named in this document (tags omitted). A change or cut given only in a name is not applied to a line headed by its entry.
UniProt P11308: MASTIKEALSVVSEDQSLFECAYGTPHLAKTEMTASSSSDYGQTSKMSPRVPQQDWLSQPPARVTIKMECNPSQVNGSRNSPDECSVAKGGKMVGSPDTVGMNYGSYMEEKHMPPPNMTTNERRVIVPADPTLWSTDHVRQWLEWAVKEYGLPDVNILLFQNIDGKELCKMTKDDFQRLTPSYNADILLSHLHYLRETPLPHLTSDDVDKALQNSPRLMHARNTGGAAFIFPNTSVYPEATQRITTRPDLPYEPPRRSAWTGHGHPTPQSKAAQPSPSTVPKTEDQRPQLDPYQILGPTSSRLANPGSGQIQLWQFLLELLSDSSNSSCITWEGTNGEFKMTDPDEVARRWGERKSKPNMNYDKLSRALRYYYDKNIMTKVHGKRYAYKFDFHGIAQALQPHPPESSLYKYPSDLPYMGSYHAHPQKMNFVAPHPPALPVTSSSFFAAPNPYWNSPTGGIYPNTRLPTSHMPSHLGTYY

Each compound was assayed against Transcriptional regulator ERG (Homo sapiens) (UniProt P11308) (assay: qHTS for Small Molecule Inhibitors of the ERG Ets/DNA interaction: HTRF assay against cherry picks). Conditions: His-ERG Ets domain with biotin-DNA; series mostly up to 154 µM; activity change, negative = inhibition: at the top concentration.
Summary of the method: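 Compounds were incubated 10 min at RT with ERG Ets domain and biotinylated DNA (each added as 200 nM solution) in pH 7.5 Tris/KCl/EDTA/DTT buffer. Binding was read as FRET (ex 320, em 615 and 665 nm) between anti-His donor and streptavidin acceptor.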

SMILES | activity change, negative = inhibition
CCNC(=O)COc1ccc(/C=N/NC(=O)c2cccnc2)cc1OC | inactive: -34.7%
c1ccc(SSc2ccccc2)cc1 | inactive: -0.584%
Cn1ncc(Cl)c1C(=O)N1CCN(C23CC4CC(CC(C4)C2)C3)CC1 | inactive: -11.7%
COc1ccc(C)cc1S(=O)(=O)Nc1cccc(C)c1 | inactive: -18.3%
CN(C(=O)c1ccncc1)C1CCS(=O)(=O)C1 (stereo not drawn) | inactive: -23.9%
COc1ccc(-c2nc3n(n2)C(c2ccccc2OC)C(C(=O)Nc2cccnc2)=C(C)N3)cc1 (stereo not drawn) | inactive: 6.74%
COC(=O)[C@H](Cc1ccccc1)NC(=O)C1(OC(C)=O)CC(OC(C)=O)C(OC(C)=O)C(OC(C)=O)C1 (stereo partly drawn) | inactive: -7.96%
CC1CCN(C(=O)COC(=O)c2ccc(=O)n(Cc3ccccc3)n2)CC1 | inactive: -13%
CC1=CC(=O)C(C(C)C)=C/C1=C(\c1cc(C(C)C)c(OP(=O)(O)O)cc1C)c1ccccc1C(=O)O | inactive: -5.84%
COc1ccc(CCC(=O)NNC(=O)c2cc(Cl)ccc2OC)cc1 | inactive: -18.2%
CN(C)C(CNC(=O)/C=C/c1cccc(Cl)c1)c1ccccc1 (stereo not drawn) | inactive: -24.2%
Cc1csc(NC(=O)CSc2nnc(NC(=O)COc3ccc(Cl)cc3)s2)n1 | inactive: -17.3%
O=C(COc1ccccc1Cl)Nc1ccc(CN2CCCCC2)cc1 | inactive: -18.8%
COc1cccc(-c2nnc(NC(=O)C(C)C)o2)c1 | inactive: 2.65%
Cc1ccccc1C(=O)NCCCc1ccccc1 | inactive: 11.7%
O=C(CNC(=O)c1ccccc1Cl)OCC(=O)N1CCc2ccccc21 | inactive: 4.77%
N/C(=N\c1nc2ccccc2o1)NC(=O)c1cccc(Br)c1 | inactive: -21.5%
CC(C)N(C(=O)Cn1cc(S(=O)(=O)CC(=O)N2CCOCC2)c2ccccc21)C(C)C | inactive: -13.7%
COc1cc(NC(=O)CCCNC(=O)c2ccc(Cl)cc2)cc(OC)c1 | inactive: -28%
Cc1ccc(-n2c(Cc3noc4ccccc34)n[nH]c2=S)cc1 | inactive: -0.53%
COc1ccc(NC(=O)COC(=O)C2C3CC4OC(=O)C2C4C3)cc1 (stereo not drawn) | inactive: -30%
Cc1ccc(CNC(=O)Cn2c(=O)n(Cc3ccc(F)cc3)c(=O)c3sc4ccccc4c32)cc1 | inactive: -27.2%
C=CCn1cccc(C(=O)Nc2cc(OC)c(OC)c(OC)c2)c1=O | inactive: -36.4%
O=C(NC1CCCCCCC1)c1ccc(F)c(S(=O)(=O)N2CCOCC2)c1 | inactive: 4.03%
CCN1CCN(C(=O)Cn2ncc3ccsc3c2=O)CC1 | inactive: -10.2%
CC(=O)Nc1cccc(NC(=O)c2ccccc2OCc2c(C)noc2C)c1 | inactive: -3.18%
Cc1ccc(NC(=O)C2CCN(S(=O)(=O)c3cccc(C(F)(F)F)c3)CC2)nc1 | inactive: -12.5%

Of the compounds above, two have a thiophene ring, fused or not:
SMILES | activity change, negative = inhibition
Cc1ccc(CNC(=O)Cn2c(=O)n(Cc3ccc(F)cc3)c(=O)c3sc4ccccc4c32)cc1 | inactive: -27.2%
CCN1CCN(C(=O)Cn2ncc3ccsc3c2=O)CC1 | inactive: -10.2%

Next entries

SMILES | activity change, negative = inhibition
COc1ccc(C2(C(=O)Nc3ccc(OC)cc3OC)CCCC2)cc1 | inactive: -17.7%
CC(C#N)(NC(=O)CN1CCN(S(=O)(=O)c2ccccc2C#N)CC1)C1CC1 (stereo not drawn) | inactive: -9.5%
Cc1ccc(-c2noc(C3CCCN(C(=O)c4cccc([N+](=O)[O-])c4)C3)n2)o1 (stereo not drawn) | inactive: -24.6%
CSC(=NC#N)N1CCN(C(=NC#N)SC)CC1 | inactive: -23.2%
CSc1ccccc1NC(=O)CN(C)C(=O)/C=C/c1ccccc1 | inactive: -23.6%
O=C(c1ccc(CS(=O)c2ccccc2Cl)o1)N1CCN(c2ccccn2)CC1 (stereo not drawn) | inactive: -22.2%
CC(=O)OCC(=O)C1=CCC2C3CCC4=CC(=O)C=CC4(C)C3(F)C(OC(C)=O)CC12C (stereo not drawn) | inactive: -16.2%
CCN(CC)S(=O)(=O)c1cccc(-c2nc3n(n2)Cc2ccccc2-3)c1 | inactive: -2.76%
CCOC(=O)N1CCN(C(=O)COC(=O)c2cccc(S(C)(=O)=O)c2)CC1 | inactive: 3.24%
Cc1ccc(CNC(=O)c2sc3nc(-c4ccc(F)cc4)ccc3c2N)cc1 | inactive: -15.3%
COc1cccc(-n2nc3c(=S)[nH]nc(C)c3c2C)c1 | inactive: 2.71%
Cn1c(SCc2nnc(-c3ccccc3)o2)nc2ccccc21 | inactive: -17%
CNC(=O)C(=O)NCCN1CCN(C(=O)c2ccc([N+](=O)[O-])cc2)CC1 | inactive: -38.6%
CCCC(=O)Nc1ccc(C(=O)Nc2nnc(COCC)s2)cc1 | inactive: -36.2%
O=C(c1ccco1)N(Cc1ccc2c(c1)OCO2)Cc1cc2cc3c(cc2[nH]c1=O)OCO3 | inactive: -27%
COc1ccc(S(=O)(=O)N2CCCC(C(F)(F)F)C2)cc1 (stereo not drawn) | inactive: -24%
COC(=O)c1sccc1NC(=O)c1ccccc1Br | inactive: -20.2%
CC(C)CC(=O)CN1C(=O)C2(OCCO2)c2ccccc21 | inactive: 0.53%
CCN(CC)c1ccc2cc(-c3nc(-c4cc(OC)c(OC)c(OC)c4)no3)c(=O)oc2c1 | inactive: -19.3%
O=[N+]([O-])c1ncccc1OCc1ccc(-c2ccccc2)cc1 | inactive: -17.9%
CCOc1ccc(-c2cc(C(=O)OC)[nH]n2)cc1 | inactive: -23.2%
CCOC(=O)C1=C(C)N(C[C@@H]2CC[C@@H](Cc3ccc(-c4ccccc4)cc3)O2)C(=O)NC1c1ccc([N+](=O)[O-])cc1 (stereo partly drawn) | inactive: -4.88%
CCOC(=O)c1c(-c2ccccc2)csc1NC(=O)c1cc(-c2ccc(C)c(F)c2)on1 | inactive: -32.9%
Cc1ccc2c(c1)N(CC(=O)NC1CCCc3ccccc31)C(=O)CO2 (stereo not drawn) | inactive: 4.19%
CCOc1cc(NC(=S)NCC(C)C)c(OCC)cc1NC(=O)c1ccco1 | inactive: -29%
COc1ccc(CCNC(=O)CSc2n[nH]c(N)n2)cc1 | inactive: -21.9%
